Assay results published in paper PMC12325296.
These are yes or no findings as the source states them, for the method shown. In cells and extracts the contact can be indirect. Here binding means that the protein was enriched with, or labelled near, the bait; the list need not be complete. A no says only that the protein was not detected with the bait.

Protein sequences, listed by entry. Tags and fused reporters are not part of them.
UniProt Q13148: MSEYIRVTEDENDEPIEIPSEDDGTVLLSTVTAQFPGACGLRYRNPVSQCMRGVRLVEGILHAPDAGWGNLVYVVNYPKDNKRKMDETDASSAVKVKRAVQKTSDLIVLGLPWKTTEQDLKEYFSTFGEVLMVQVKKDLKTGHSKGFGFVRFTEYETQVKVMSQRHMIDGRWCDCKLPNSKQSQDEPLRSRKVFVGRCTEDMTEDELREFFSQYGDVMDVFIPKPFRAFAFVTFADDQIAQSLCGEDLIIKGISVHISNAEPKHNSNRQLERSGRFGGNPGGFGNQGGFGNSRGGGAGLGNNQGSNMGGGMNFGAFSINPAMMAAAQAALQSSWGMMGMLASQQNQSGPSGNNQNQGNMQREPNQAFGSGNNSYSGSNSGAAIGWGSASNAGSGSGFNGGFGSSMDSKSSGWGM
UniProt P52294: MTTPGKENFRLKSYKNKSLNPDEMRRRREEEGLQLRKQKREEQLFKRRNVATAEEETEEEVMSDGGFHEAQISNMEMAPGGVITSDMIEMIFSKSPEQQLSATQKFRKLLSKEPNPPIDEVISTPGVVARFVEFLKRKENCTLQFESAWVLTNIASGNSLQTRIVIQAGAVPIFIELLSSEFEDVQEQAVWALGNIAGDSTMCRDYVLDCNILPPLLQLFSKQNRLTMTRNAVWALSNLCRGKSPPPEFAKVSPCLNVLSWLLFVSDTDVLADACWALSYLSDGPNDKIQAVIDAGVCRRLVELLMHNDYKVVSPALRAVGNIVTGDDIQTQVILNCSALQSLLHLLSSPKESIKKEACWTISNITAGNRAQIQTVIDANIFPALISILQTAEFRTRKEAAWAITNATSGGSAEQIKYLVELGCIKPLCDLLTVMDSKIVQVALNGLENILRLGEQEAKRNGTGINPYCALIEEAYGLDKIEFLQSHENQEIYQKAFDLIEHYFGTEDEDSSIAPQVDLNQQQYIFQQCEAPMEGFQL
UniProt O00629: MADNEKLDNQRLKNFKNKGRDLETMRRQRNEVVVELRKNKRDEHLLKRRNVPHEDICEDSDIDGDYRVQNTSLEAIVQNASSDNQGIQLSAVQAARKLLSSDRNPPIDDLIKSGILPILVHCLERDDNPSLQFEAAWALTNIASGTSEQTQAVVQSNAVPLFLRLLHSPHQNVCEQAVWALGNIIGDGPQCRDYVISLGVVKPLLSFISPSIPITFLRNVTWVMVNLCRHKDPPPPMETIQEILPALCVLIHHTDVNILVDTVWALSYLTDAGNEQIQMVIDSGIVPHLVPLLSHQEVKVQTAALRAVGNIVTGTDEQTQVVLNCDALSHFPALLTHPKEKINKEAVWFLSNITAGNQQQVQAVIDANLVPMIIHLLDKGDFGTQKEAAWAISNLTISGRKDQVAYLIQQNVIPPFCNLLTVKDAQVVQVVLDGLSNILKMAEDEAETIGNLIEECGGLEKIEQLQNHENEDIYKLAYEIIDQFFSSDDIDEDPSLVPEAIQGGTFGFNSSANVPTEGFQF
UniProt O00505: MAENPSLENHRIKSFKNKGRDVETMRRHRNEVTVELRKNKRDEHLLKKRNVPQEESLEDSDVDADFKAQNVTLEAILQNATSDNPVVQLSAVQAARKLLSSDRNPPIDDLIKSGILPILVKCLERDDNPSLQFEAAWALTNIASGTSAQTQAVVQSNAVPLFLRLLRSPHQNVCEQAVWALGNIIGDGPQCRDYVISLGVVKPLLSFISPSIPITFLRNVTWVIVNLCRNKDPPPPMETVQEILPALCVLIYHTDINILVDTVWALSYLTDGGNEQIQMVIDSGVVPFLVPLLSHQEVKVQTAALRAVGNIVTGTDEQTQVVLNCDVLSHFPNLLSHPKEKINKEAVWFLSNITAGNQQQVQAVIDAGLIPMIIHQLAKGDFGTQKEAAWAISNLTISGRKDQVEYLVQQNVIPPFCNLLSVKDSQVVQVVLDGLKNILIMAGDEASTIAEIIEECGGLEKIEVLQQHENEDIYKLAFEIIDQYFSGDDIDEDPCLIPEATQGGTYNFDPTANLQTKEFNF

Molecular target: BioID2-Myc-TDP-43 (human wildtype TDP-43 fused to biotin ligase BioID2) (human) (UniProt Q13148)
Assay: proximity labelling; BioID2 proximity biotinylation in stable Flp-In HEK293 cell lines expressing BioID2 fused to TDP-43 (wildtype or ΔNLS) or control BioID2; pulldown using BioID2 as bait, then immunostaining for endogenous KPNAs

binding	Substance
binds	KPNA1 (from UniProt P52294 1-538)
binds	karyopherin-α4 (KPNA4) (from UniProt O00629 1-521)
binds	KPNA3 (from UniProt O00505 1-521)
no binding	KPNA6 (from UniProt O60684 1-536)
